Construct, isoform or probe ends are uncertain for at least one entry. A weaker result is weaker than the reference pair of the same experiment. Where a protein sequence is shown, tags need not be part of it.
Target: T1, FUS C-terminal RNA-binding module (His6-FUS) (UniProt P35637)
T1 sequence (looked up): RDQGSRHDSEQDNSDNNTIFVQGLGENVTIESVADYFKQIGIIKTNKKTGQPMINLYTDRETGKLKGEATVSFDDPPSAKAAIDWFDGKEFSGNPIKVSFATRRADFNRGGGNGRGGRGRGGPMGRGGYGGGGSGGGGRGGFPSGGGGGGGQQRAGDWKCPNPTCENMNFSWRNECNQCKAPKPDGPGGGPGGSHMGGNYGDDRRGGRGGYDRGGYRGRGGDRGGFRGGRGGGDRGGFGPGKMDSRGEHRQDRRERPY
Assay: EMSA
Conditions: 150 mM LiCl (no K+), complex seen, less intense than KCl, supershift with anti-His; EMSA: 1 uM RNA, 0/0.1/1/5 uM His6-FUS, 50 mM HEPES-KOH (or HEPES-LiOH) pH 7.4, 150 mM KCl (or LiCl), 200 ng BSA, 2 mM EDTA, 2 mM DTT, 5% glycerol, 30 min 30 C; recombinant protein; residues 269-526; protein details: His6 (pET28a-TEV); label: none (SYBR Gold stain)

Row | Sequence | binding result
1 | AGGGGGAGGGUGUGGGGGCAGUGAGGGU [28RPL23A WT] | binds more weakly
2 | UGGUGCGCGGGUCCCGGGGAGGGGA [25COPS9 WT] | binds more weakly
3 | UUAGGGUUAGGGUUAGGGUUAGGG [TERRA WT] | binds more weakly

— publication PMC12482648, “G-quadruplex structural motifs modulate protein–RNA interactions within the transcriptome”
